Experimental data as given in the supplement of paper PMC7858590.
± gives the standard deviation of the averaged measurements. Over roughly 3,800 compounds, “cell shape (eccentricity) Z-score vs DMSO control” has its median near 1.1; the lowest 2% begin near -4.7. This is one part of the list. Non-standard residues stand in square brackets, D forms with d. Residues, ends and D or L forms follow the SMILES beside them. ξ: configuration not given here. ξLac(3-iPr) = CC(C)CC(O)C(=O)O; NMeV = CN[CH](C(=O)O)C(C)C; NMeA = CN[CH](C)C(=O)O; βAla = NCCC(=O)O

The compounds below were run on human monocyte-derived macrophages (M0) (assay: cell shape (eccentricity) Z-score vs DMSO control; higher = more elongated, M2-like morphology). Conditions: 20 µM; 24 h; macrophage state: M0 (M-CSF).

Question: For `OC[C@H]1O[C@@H](Oc2ccc(/C=C/c3cc(O)cc(O)c3)cc2O)[C@H](O)[C@@H](O)[C@@H]1O`, which “cell shape (Z-score)” value is on record?
Answer: Its value is -0.871.

Question: For `c1ccc(CCCN2CCN(CCOC(c3ccccc3)c3ccccc3)CC2)cc1`, which “cell shape (Z-score)” value is on record?
Answer: Its value is 4.69.

Question: With `C#CCOC(=O)C1=CCCN(C)C1` as the compound, how does the “cell shape (Z-score)” value read?
Answer: The value was -0.795.

Question: For `C[C@]12CC[C@@H](O)C[C@@H]1CC[C@@H]1[C@@H]2CC[C@]2(C)[C@@H](C(=O)CO)CC[C@@H]12`, which “cell shape (Z-score)” value is on record?
Answer: Its value is 5.44.

Question: For `N#CC(O[C@@H]1O[C@H](CO)[C@@H](O)[C@H](O)[C@H]1O)c1ccccc1` (some centres not stated), which “cell shape (Z-score)” value is on record?
Answer: Its value is -1.17.

Question: For `CNC(=NS(=O)(=O)c1ccc(Cl)cc1)N1C[C@H](c2ccccc2)C(c2ccc(Cl)cc2)=N1`, which “cell shape (Z-score)” value is on record?
Answer: Its value is 1.48.

Question: How did the “cell shape (Z-score)” value turn out when `CCOP(=S)(OCC)Oc1cc(C)nc(C(C)C)n1` was run?
Answer: The value was 0.52.

Question: How did the “cell shape (Z-score)” value turn out when `Clc1ccc(C2=CCCC3CCC2N3)cn1` (configuration not stated) was run?
Answer: The value was 7.05.

Question: Which “cell shape (Z-score)” value does the source give for `Cn1c2c(c3ccccc31)CCNCC2` here?
Answer: The value was 1.06.

Question: How did the “cell shape (Z-score)” value turn out when `c1ccc2sc(C3(N4CCCC4)CCCCC3)cc2c1` was run?
Answer: Its value is 1.93.

Question: For `NCCc1c[nH]c2ccccc12`, which “cell shape (Z-score)” value is on record?
Answer: Its value is 2.21.

Question: For `CC(=O)OC1CCC2(C)C(CC[C@@H]3[C@@H]2CCC2(C)C(C4=CC(=O)OC4)CCC32O)C1` (some centres not stated), which “cell shape (Z-score)” value is on record?
Answer: Its value is 0.344.

Question: `CC(C)(O)/C=C/C(=O)[C@](C)(O)C1[C@H](O)C[C@@]2(C)C3CC=C4C(CC(=O)C(=O)C4(C)C)[C@]3(C)C(=O)C[C@]12C` (some centres not stated) was tested. Which “cell shape (Z-score)” value did it give?
Answer: The value was -23.9.

Question: How did the “cell shape (Z-score)” value turn out when `COC(=O)c1cc2c(cn1)[nH]c1ccccc12` was run?
Answer: The value was 1.76.

Question: For `S=C(NC1CCCCC1)N1CCC(c2c[nH]cn2)CC1`, which “cell shape (Z-score)” value is on record?
Answer: Its value is 1.33.

Question: For `CO[C@@H]1[C@H](O)[C@@H](O[C@@H]2C[C@H]3CC[C@@H]4C(CC[C@]5(C)[C@@H](C6=CC(=O)OC6)CC[C@]45O)[C@@]3(C)[C@H](O)C2)O[C@H](C)[C@@H]1O[C@@H]1O[C@H](CO)[C@@H](O)[C@H](O)[C@H]1O` (some centres not stated), which “cell shape (Z-score)” value is on record?
Answer: Its value is -2.59 ± 0.87.

Question: How did the “cell shape (Z-score)” value turn out when `Cc1[nH]c2ccc(Cl)cc2c1C1=CCNCC1` was run?
Answer: The value was -1.23.

Question: For `C=C(C)[C@H]1Cc2c(ccc3c2O[C@@H]2COc4cc(OC)c(OC)cc4[C@@H]2C3=O)O1`, which “cell shape (Z-score)” value is on record?
Answer: The value was -3.4.

Question: For `Cc1c(O)c(C(=O)O)c(O)c2c1[C@H](C)[C@@H](C)OC2=O`, which “cell shape (Z-score)” value is on record?
Answer: The value was 0.172.

Question: How did the “cell shape (Z-score)” value turn out when `CCC(=O)O[C@H]1CCC2C3CCC4=CC(=O)CC[C@]4(C)C3CC[C@@]21C` (some centres not stated) was run?
Answer: The value was 1.77.

Question: `O=C1c2ccccc2C(=O)c2ccccc21` was tested. Which “cell shape (Z-score)” value did it give?
Answer: The value was 1.99.

Question: `COc1ccc2c(c1)c(CCN1CCOCC1)c(C)n2C(=O)c1cccc(Cl)c1Cl` was tested. Which “cell shape (Z-score)” value did it give?
Answer: The value was 3.49.

Question: Which “cell shape (Z-score)” value does the source give for `COc1cc(OC)c2c(c1)O[C@H](c1ccc(OC)c(OC)c1)[C@@H](O)C2` here?
Answer: Its value is 2.63.

Question: Which “cell shape (Z-score)” value does the source give for `CC=C1CN2C3CC1C1(C(=O)OC)C2CC2(c4ccccc4N(C)C32)C1O` (configuration not stated) here?
Answer: Its value is -0.509 ± 2.3.

Question: For `O=C1CC2OCC=C3CN4CC[C@]56c7ccccc7N1C5[C@H]2[C@H]3CC46` (some centres not stated), which “cell shape (Z-score)” value is on record?
Answer: Its value is -0.204.

Question: Which “cell shape (Z-score)” value does the source give for `Oc1ccc2c3c1OC1[C@@H](O)CC[C@@]4(O)[C@@H](C2)N(CC2CCC2)CC[C@]314` (some centres not stated) here?
Answer: Its value is -0.423.

Question: With `Cc1cccc(C)c1NC1=NCCCS1` as the compound, how does the “cell shape (Z-score)” value read?
Answer: The value was -0.715.

Question: For `C[C@@H]1O[C@@H](OC2CCC3(C)C4CCC5(C)C(C6=CC(=O)OC6)CCC5(O)C4CC[C@H]3C2)[C@H](O)[C@H](O)[C@H]1O` (some centres not stated), which “cell shape (Z-score)” value is on record?
Answer: Its value is -1.64.

Question: How did the “cell shape (Z-score)” value turn out when `N#CC(C#N)=NNc1cccc(Cl)c1` was run?
Answer: Its value is 1.06.

Question: With `COC(=O)C1=COC(C)C2CN3CCC4(C(=O)Nc5ccccc54)C3CC12` (configuration not stated) as the compound, how does the “cell shape (Z-score)” value read?
Answer: Its value is 3.25.

Question: Which “cell shape (Z-score)” value does the source give for `O=C(CCCN1CCC2(CC1)C(=O)NCN2c1ccccc1)c1ccc(F)cc1` here?
Answer: The value was 0.313.

Question: For `CNC(C)C(O)c1ccccc1` (configuration not stated), which “cell shape (Z-score)” value is on record?
Answer: The value was -0.0152.

Question: For `CC(=O)OC1CC[C@@]2(C)C(CCC3C2CC[C@]2(C)C(C4=CC(=O)OC4)C(OC(C)=O)CC32O)C1` (some centres not stated), which “cell shape (Z-score)” value is on record?
Answer: The value was -3.57.

Question: `CN(C)[C@@H]1C(=O)C(C(N)=O)C(=O)[C@@]2(O)C(=O)C3C(=O)c4c(O)cccc4[C@](C)(O)[C@H]3C[C@@H]12` (some centres not stated) was tested. Which “cell shape (Z-score)” value did it give?
Answer: The value was -0.502.

Question: For `CCOC(=O)c1ncn2c1C1CCCN1C(=O)c1cc(OC)ccc1-2` (configuration not stated), which “cell shape (Z-score)” value is on record?
Answer: Its value is 6.49.

Question: How did the “cell shape (Z-score)” value turn out when `COc1c(C(C)C)cc2c(c1O)[C@@]1(C(=O)O)CCCC(C)(C)C1CC2` (some centres not stated) was run?
Answer: The value was 0.403 ± 3.

Question: `C[C@@H]1O[C@@H](O[C@H]2C[C@@H](O)[C@]3(CO)[C@H]4[C@H](O)C[C@]5(C)[C@@H](C6=CC(=O)OC6)CC[C@]5(O)[C@@H]4CC[C@]3(O)C2)[C@H](O)[C@H](O)[C@H]1O` was tested. Which “cell shape (Z-score)” value did it give?
Answer: The value was 0.03.

Question: For `Oc1c(Cl)c(Cl)c(Cl)c(Cl)c1Cl`, which “cell shape (Z-score)” value is on record?
Answer: The value was 1.36.

Question: `c1ccc(CCCCN2CCC(c3ccccc3)CC2)cc1` was tested. Which “cell shape (Z-score)” value did it give?
Answer: Its value is 0.721.

Question: For `COc1ccc(C[C@H]2NC[C@H](O)[C@H]2OC(C)=O)cc1`, which “cell shape (Z-score)” value is on record?
Answer: Its value is 2.66.

Question: For `C=CCC1(C(C)CCC)C(=O)N=C(S)NC1=O` (configuration not stated), which “cell shape (Z-score)” value is on record?
Answer: Its value is 2.85.

Question: Which “cell shape (Z-score)” value does the source give for `CCC(C)C1NC(=O)C2CCCN2C(=O)C(CC(C)C)OC(=O)CCNC(=O)C(C)N(C)C(=O)C(C(C)C)N(C)C1=O` (configuration not stated) (cyclo([ξLac(3-iPr)]PI[NMeV][NMeA][βAla]); configuration not given here) here?
Answer: The value was 3.59.

Question: How did the “cell shape (Z-score)” value turn out when `Cc1nnc2n1-c1sc(CCC(=O)N3CCOCC3)cc1C(c1ccccc1Cl)=NC2` was run?
Answer: Its value is 1.51.

Question: For `COC12CC(COC(=O)c3cncc(Br)c3)CN(C)C1Cc1cn(C)c3cccc2c13` (configuration not stated), which “cell shape (Z-score)” value is on record?
Answer: Its value is 1.27.

Question: `CN1CCc2cc(O)cc3c2[C@H]1Cc1ccc(O)c(O)c1-3` was tested. Which “cell shape (Z-score)” value did it give?
Answer: Its value is 1.06.

Question: Which “cell shape (Z-score)” value does the source give for `C(=C\c1ccccc1)/CN1CCN(CCOC(c2ccccc2)c2ccccc2)CC1` here?
Answer: The value was -5.62.

Question: How did the “cell shape (Z-score)” value turn out when `CO[C@]12C[C@@H](COC(=O)c3cncc(Br)c3)CN(C)[C@@H]1Cc1cn(C)c3cccc2c13` was run?
Answer: Its value is -0.607.
